# In all, about 33,000 sequences were measured (“E-score (-0.5 to 0.5)”: median about -0.0059, highest 2% from about 0.26 on). The list shows a part of the results.
# Target: T1, Cin5 (UniProt P40917)
# T1 sequence: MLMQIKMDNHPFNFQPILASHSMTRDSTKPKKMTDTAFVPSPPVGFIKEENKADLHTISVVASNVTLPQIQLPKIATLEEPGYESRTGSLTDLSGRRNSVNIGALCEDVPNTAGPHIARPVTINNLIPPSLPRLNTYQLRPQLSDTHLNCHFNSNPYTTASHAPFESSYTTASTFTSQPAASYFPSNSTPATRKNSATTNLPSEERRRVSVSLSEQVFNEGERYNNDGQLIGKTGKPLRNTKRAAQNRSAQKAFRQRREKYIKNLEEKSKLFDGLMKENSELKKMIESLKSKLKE
# Experiment: PBM E-score (8-mer binding enrichment) (E-score (-0.5 to 0.5)); higher = stronger / more preferred TF binding
# Conditions: protein concentration: 100 nM; construct: GST-full length
# Method: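 Universal 'all 10-mer' protein binding microarrays (Agilent AMADID 015681) probed with GST-tagged S. cerevisiae TFs (full-length or DBD) made by in vitro transcription/translation (PURExpress), about 100-200 nM. Bound TF was detected with fluorescent anti-GST. Each ungapped 8-mer (which stands for itself and its reverse complement) is scored by the PBM enrichment score (E-score), a modified Wilcoxon-Mann-Whitney statistic from -0.5 to +0.5, computed with the Universal PBM Analysis Suite. Scale: above 0.35 generally sequence-specific binding.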
row,Sequence,PBM E-score
1,AGAGACGG,-0.151
2,AGTCTGTC,-0.156
3,ACTAGTGG,0.134
4,AAAGATCT,-0.0862
5,TACTTATA,0.0465
6,TAATTTGA,0.0255
7,CATGTCGA,-0.0282
8,AAACCTTT,-0.155
9,CGCATCAC,-0.11
10,ATACGTTG,0.0912
11,TCCGGCCA,-0.131
12,ATCTCGCC,0.0516
13,TATAGCCA,0.111
14,CGGCAGTC,0.0575
15,CGGCGGCA,-0.214
16,CCAGTTCC,0.0366
17,AACCAATT,0.221
18,AAGCTAGT,0.133
19,CTTTGAAA,-0.0167
20,TCAGTCCA,-0.312
21,GCTGTCCA,-0.0158
22,ATCAATAA,0.158
23,CGCTGCGC,-0.204
24,AAGTCGAA,-0.0375
25,CGTCAAAC,-0.105

row,Sequence,PBM E-score
1,AACCGCTA,0.0639
2,GAACATCC,0.0789
3,CCCATACC,0.0984
4,GACGGCGC,-0.118
5,AACTAGAT,0.0382
6,AGCGCAAA,0.125
7,GTGCTAGA,-0.0787
8,GGAAAAAC,0.194
9,GGCATTCA,0.0441
10,GCAGTGAC,-0.0501
11,CACGCGTA,0.0157
12,CTGTACCA,-0.0889
13,AATGCTGC,0.0801
14,ATGACGTG,0.191
15,ACGAAGCC,-0.0831
16,GACCACGA,-0.0244
17,TCTATGCA,-0.0269
18,ACACTAAG,-0.092
19,GCCACGCA,-0.264
20,AAGTGTGA,-0.0482
21,CCGTACAC,-0.0633
22,CAAGGGGG,-0.482
23,ATCTGGAA,0.11
24,AGTTACAA,0.194
25,ATAGTAAT,0.358

row,Sequence,PBM E-score
1,AGACCAGG,-0.122
2,CGTCCTAC,0.0176
3,TCCTTACA,-0.021
4,CACATTGG,0.0453
5,CGGCTGAA,-0.0649
6,ATCAATCA,0.102
7,CCGTGTGC,-0.104
8,ATCTGGAG,-0.16
9,TAGGTTGA,0.0376
10,CCTTCGGC,-0.33
11,GCAAGACC,-0.0795
12,CGCAGCCC,-0.0915
13,GGACAGCC,-0.0835
14,GGCCGACA,-0.221
15,AGCGGCCG,-0.124
16,CGGCTTCC,-0.0384
17,AACCCTCA,-0.0866
18,GCGCTAGC,-0.257
19,ACTGAACT,0.114
20,AGGCTGCA,-0.211
21,GACCTATA,0.166
22,CCGGCTAG,-0.312
23,GGCCACCC,-0.14
24,CAGGTTGC,0.0356
25,GTGTATTA,0.273

# Exported bar-delimited: part of the list above.
row | Sequence | PBM E-score
2 | CGTCCTAC | 0.0176
3 | TCCTTACA | -0.021
8 | ATCTGGAG | -0.16
11 | GCAAGACC | -0.0795
15 | AGCGGCCG | -0.124

# The list goes on:

row,Sequence,PBM E-score
1,GGGAGAAA,-0.14
2,AGTGCACT,0.00945
3,AAACCGGC,0.0295
4,GCTTGCAC,-0.153
5,CCTATCAC,-0.00415
6,CGAGACGA,-0.172
7,GGCGCCCC,-0.181
8,ATTAGGCA,0.0131
9,AGGAATAT,0.162
10,TGCTGAAA,-0.166
11,AGCGCATC,-0.00729
12,CATCGCGG,0.00796
13,ATGCCATG,0.0486
14,TACAGGTA,0.116
15,CTGTCTCC,-0.0856
16,ACGCTCCT,-0.121
17,AAATCACT,0.141
18,AACGACGG,0.0702
19,CCACATTA,0.11
20,ACGGAGGA,-0.131
21,CGCGAGTA,0.21
22,CCTCGGGC,-0.151
23,CATTGTGA,0.159
24,CTCCCCCA,-0.387
25,CCAGGGGC,-0.283

row,Sequence,PBM E-score
1,CTCACCTC,0.112
2,AGGCGCTC,-0.263
3,GATGACAA,0.27
4,AAACTGTG,0.0317
5,GGCCTCAC,-0.0663
6,ATATGCGA,0.151
7,ATCTGCTG,-0.0633
8,GCGAACAC,-0.00885
9,TAACTCAA,0.106
10,CCTTGCAG,-0.283
11,ATAAGAAT,0.224
12,ATACGACA,0.127
13,ACCAGTAA,0.0991
14,ACATTACA,0.105
15,AGCAACGC,-0.0248
16,AAAGGCCA,-0.142
17,CTGGAAGC,-0.24
18,CATAGAGC,-0.148
19,AATGCACC,-0.109
20,AAAGCTAT,-0.00422
21,AATTAACC,0.143
22,TGCTTGAA,0.0612
23,ACCCGGTA,0.0389
24,GAACGCCA,-0.0604
25,CCTCTTGC,-0.166

row,Sequence,PBM E-score
1,GAGGTTCC,-0.146
2,CTGGGTTA,-0.0908
3,CTGAGGTC,-0.127
4,CAAGTGAC,0.078
5,GATCCATA,0.0427
6,ACTGACTC,-0.0414
7,CACTCCAG,-0.00782
8,ACAGCAGC,0.00839
9,CAGCTGAG,0.0214
10,CGAGTCAG,-0.126
11,CTATACCA,0.0886
12,GGACGTAC,-0.034
13,AGTAGTAT,0.165
14,AACTTGAT,0.174
15,GAAGTAAA,0.0647
16,CTAGGCGC,-0.0829
17,TCATGGGA,-0.00205
18,AGTGAGAC,-0.118
19,ACTTACCT,-0.0896
20,CGCCAATA,0.121
21,CGACGGCG,-0.146
22,AATGCCTA,0.0217
23,AAAAAGTC,0.0168
24,AACGACAT,0.192
25,CAACGAGC,-0.134

row,Sequence,PBM E-score
1,AATCGTGC,0.176
2,GTCCAAAA,0.0885
3,AAGGCTGC,-0.15
4,CTTTCAGA,0.00683
5,TGCAGACA,0.0564
6,TGAATCCA,0.0884
7,CTGAACCA,-0.119
8,GACCATGA,0.00385
9,ACCAGACA,-0.178
10,CTAGTCGA,-0.0538
11,GAGCATGA,0.0489
12,GAAGTATA,0.235
13,CCTGCACC,-0.279
14,CACGGTAC,-0.332
15,CATTATCC,0.276
16,AAAGATGG,0.0217
17,GCGTTCTA,-0.00959
18,ATCGTTTC,-0.0521
19,GCAAAGCC,-0.236
20,AAAACTAG,-0.0595
21,CCAGAACA,0.0798
22,CGGGCGTA,-0.132

# Four entries drawn at random from those above:
row,Sequence,PBM E-score
9,ACCAGACA,-0.178
1,AATCGTGC,0.176
14,CACGGTAC,-0.332
19,GCAAAGCC,-0.236

# Reference: the supplement of paper PMC3334620
